Measurements from patent US20210163437A1, “DERIVATIVES OF TRICYCLIC SPIROLACTONES AND USES THEREOF IN TREATMENT AND MANAGEMENT OF PAIN” (Yissum Research Development Company of The Hebrew …, priority 2017, published 2021).
Some of these results come from one statement about several compounds together. At least one compound was matched to its structure with a doubt left.

Sequences of proteins named here, by UniProt entry; tags and fusion partners are left off.
UniProt O35433, whole entry: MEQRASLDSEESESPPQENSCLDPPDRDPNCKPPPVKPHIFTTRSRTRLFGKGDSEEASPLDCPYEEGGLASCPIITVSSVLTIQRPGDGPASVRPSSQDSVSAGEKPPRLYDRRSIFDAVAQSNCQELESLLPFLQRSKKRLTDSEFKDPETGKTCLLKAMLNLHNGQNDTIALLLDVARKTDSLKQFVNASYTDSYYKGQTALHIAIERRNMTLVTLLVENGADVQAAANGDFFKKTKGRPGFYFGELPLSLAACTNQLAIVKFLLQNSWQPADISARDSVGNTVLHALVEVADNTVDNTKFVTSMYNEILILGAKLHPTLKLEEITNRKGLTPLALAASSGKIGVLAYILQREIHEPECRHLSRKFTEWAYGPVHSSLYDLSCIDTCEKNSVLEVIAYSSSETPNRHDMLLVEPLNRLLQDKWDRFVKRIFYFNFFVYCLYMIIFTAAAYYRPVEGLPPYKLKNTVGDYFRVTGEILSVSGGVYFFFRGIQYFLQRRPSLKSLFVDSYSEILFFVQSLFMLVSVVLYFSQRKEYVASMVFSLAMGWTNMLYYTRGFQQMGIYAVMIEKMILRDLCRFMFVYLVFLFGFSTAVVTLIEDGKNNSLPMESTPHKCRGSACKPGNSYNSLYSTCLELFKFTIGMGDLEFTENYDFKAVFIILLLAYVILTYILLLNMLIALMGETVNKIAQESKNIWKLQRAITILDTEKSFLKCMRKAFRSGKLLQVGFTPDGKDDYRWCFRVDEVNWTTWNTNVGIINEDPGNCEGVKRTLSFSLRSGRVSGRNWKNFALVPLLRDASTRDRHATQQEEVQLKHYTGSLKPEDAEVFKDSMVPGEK

Target: T1, rat TRPV1 (rTRPV1) (Rattus norvegicus, UniProt O35433)
T1 construct: expressed in transfected cells; host or cells: HEK293T (transient)
Experiment: live-cell calcium imaging of HEK293T cells transiently expressing rat TRPV1
Type: cell-based
Conditions: compound 300 μM (0.3 mM); fura-2-loaded HEK293T transiently expressing rTRPV1; only capsaicin positive cells analyzed
Description: (3A) Top: Captured pseudocolor images of fura-2-loaded HEK293T cells transiently expressing rTRPV1, before (“Basal”) and after the application of synthesized tricyclic spirolactones (300 μM; ‘Comp.’), followed by the subsequent application of capsaicin (2 μM; “Cap”). Scale bar indicates level of intracellular calcium. Bottom: Box and whiskers plot showing the indicated compound (300 μM)-evoked calcium response of HEK293T cells expressing rTRPV1, normalized to the capsaicin (2 μM)-evoked response. Boxes represent the mean of 3-4 independent experiments (each n≥50 cells); only capsaicin-positive cells were analyzed. Statistical significance between the different compounds' normalized responses is indicated as follows: *p≤0.05; ***p≤0.001; ns, no statistical significance (ANOVA followed by multiple comparison test). (3B) Top: Captured pseudocolor images of fura-2-loaded HEK293T cells transiently expressing the wt rTRPV1 (“rV1”; top), chicken TRPV1 (“cV1”; middle), or the VBS mutated receptor rTRPV1-Y511G (“YG”; bottom), before (“Basal”) and after the application of compound 13 (300 μM; “13”), which was followed by the subsequent application of 2-APB (300 μM; “2APB”). Scale bar indicates level of intracellular calcium. Bottom: changes with time of intracellular calcium levels in fura-2-loaded HEK293T expressing rat TRPV1 (“rTRPV1”; red line), rat TRPV1-Y511G (“rTRPV1(YG)”; purple line), and chicken TRPV1 (“cTRPV1”; orange line) in response to compound 13 (300 μM; “13”; light gray bar), which was followed by the subsequent application of 2-APB (300 μM; “2APB”; gray bar). Each trace represents an average of 75-130 cells sensitive to 2-APB. […] (3C) Top: Captured pseudocolor images of fura-2-loaded HEK293T cells transiently expressing rTRPV1, before (“Basal”) and after the application of saturated tricyclic spirolactones (300 μM; “Comp.”), which was followed by the subsequent application of capsaicin (2 μM; “Cap”). Scale bar indicates the level of intracellular calcium. […] Boxes represent the mean of 3-4 independent experiments (each n≥50 cells); only capsaicin positive cells were analyzed. Statistical significance between the different compounds' normalized responses is indicated as follows: **p≤0.01; ***p≤0.001; ns, no statistical significance (ANOVA followed by multiple comparison test).
To examine whether the compact tricyclic spirolactones activate TRPV1, we scanned a library of synthesized compounds illustrated in FIG. 2C. […] To test this possibility, we recoded the response of rTRPV1 transiently expressed in HEK293T cells in the whole-cell or inside-out patch clamp configurations.

| Structure (SMILES) | compound-evoked calcium response normalized to the capsaicin (2 μM)-evoked response |
| --- | --- |
| CC1C[C@H]2CCC[C@H]3CCC(=O)O[C@]32C1 (stereo partly shown) [Compound 14] | decreased their ability to activate TRPV1 |
| CC1C[C@H]2CCC[C@H]3CC(=O)O[C@@]23C1 (stereo partly shown) [Compound 15] | decreased their ability to activate TRPV1 |
| CC1C[C@@H]2CCCC[C@H]3CC(=O)O[C@]32C1 (stereo partly shown) [Compound 17] | decreased their ability to activate TRPV1 |
| O=C1C[C@@H]2CC[C@@H]3CCCC[C@]32O1 [Compound 18] | decreased their ability to activate TRPV1 |
